Measured values from patent publication US20150147411A1, “COMPOSITION FOR PREVENTING OR TREATING COLITIS COMPRISING S-ALLYL-L-CYSTEINE AS ACTIVE INGREDIENT, AND MEDICAL PREPARATION COMPRISING SAME” (PHARMAKING CO., LTD., priority 2012, published 2015).

Test: Body weight of mice pre-treated with compositions, DSS-induced colitis
Format: in vivo, C57BL6 mice
Settings: 2011.12.28, start of experiment
Method: In this experiment, C57BL6 mice were employed for the following reasons. The experimental animals are widely used throughout the world and are evaluated as being suitable for validity assays. In addition, because a great amount of fundamental test data on various disease models of the animals has been accumulated, the data can be utilized in analyzing and assessing test results. When purchased from OrientBio Inc. the experimental animals weighed 18 g±20%. They were bred under a light intensity of 150˜300 Lux in the controlled condition of 12:12-h light-dark cycles, with at least 10 ventilation rounds per hour.
For use in testing therapeutic effects of the agents of Examples, Comparative Examples, and Control Examples, the mice (G1 to G7) were fed with a 2.5 wt % aqueous dextran sodium sulfate (DSS) solution to induce inflammatory bowel disease therein.
Weights are expressed as mean±standard deviation.
From Jan. 12, 2012, the mice were allowed to drink an aqueous DSS 2.5 wt % solution for 7 days. DSS-induced diarrhea or hematochezia caused mice in groups G2 to G7 to lose weight, as compared at the point of DSS treatment.

SMILES | Body weight (mean ± standard deviation) (G7, Control 50 mg/kg) [g] | Body weight (mean ± standard deviation) (G3, Ex. 1 12.5 mg/kg) [g] | Body weight (mean ± standard deviation) (G4, Ex. 1 25 mg/kg) [g] | Body weight (mean ± standard deviation) (G5, Ex. 1 50 mg/kg) [g] | Body weight (mean ± standard deviation) (G6, Ex. 1 100 mg/kg) [g]
O=C(NC(Cc1cc(=O)[nH]c2ccccc12)C(=O)O)c1ccc(Cl)cc1 (centres unmarked) [Control, Rebamipide, reference compound] | 20.7 ± 0.7 |  |  |  | 
C=CCSC[C@H](N)C(=O)O [Example 1, S-allyl-L-cysteine] |  | 20.9 ± 1.5 | 20.2 ± 0.9 | 20.7 ± 1.1 | 20.5 ± 0.9
